Measurements taken from PubChem BioAssay AID504444 (National Center for Advancing Translational Sciences (NCATS), 2011).
About 7,500 (2.1%) of roughly 360,000 compounds were called active. The inconclusive results got no clear call from the source; some entries with a clear call stand among them for comparison. Calls follow the shape of the dose curve; as a rule, active = well fitted inhibition curve with a large enough effect; inconclusive = small, poorly fitted or top-dose-only effect, or effect the other way; inactive = flat fitted curve, though single readings scatter. Potencies of inconclusive entries are doubtful fits and often do not repeat.

Assay: Nrf2 qHTS screen for inhibitors; also: nearly all actives have a fitted effect of over 60% in size
Details: A549 ARE-Fluc reporter, luciferase luminescence, 18-24 h; activity change, negative = inhibition: at 46 µM (top of the series)
Procedure, shortened: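 A549 ARE_Fluc cells, 5000/well, 5% FBS OPTI-MEM; compounds in dose-response, 18-24 h at 37 °C/5% CO2; CellTiter-Fluor viability read (Ex 405/Em 525), then BugLite luciferase luminescence = Nrf2 activity.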
% is scaled to controls: 0 for no effect and ±100 for the full control effect; potency is read from the fitted curve at half-maximal effect.

SMILES	activity change, negative = inhibition	Potency
CCCc1cc(Nc2c(C)n(C)n(-c3ccccc3)c2=O)n2c(nc3ccccc32)c1C#N	inactive: 24.7%	
Cc1ccc2nc(N(CCCN(C)C)C(=O)c3ccc(S(=O)(=O)N4CCc5ccccc5C4)cc3)sc2c1		active: 20.6 µM
Cc1nc(/C(N)=N/OC(=O)c2ccccc2Cl)c(C(F)(F)F)o1		inconclusive: 23.1 µM [activator, partial curve]
Cc1ccsc1C(=O)N1CCCC(CO)(Cc2ccccc2)C1 (configuration not stated)		inconclusive: 25.9 µM [activator, single point]
COC(=O)c1ccccc1S(=O)(=O)Nc1cc(=O)c2ccccc2[nH]1		inconclusive: 32.6 µM [activator, partial curve, poor fit]
C=CCc1ccc(OCCN2CCc3ccccc3C2)c(OC)c1		inconclusive: 20.6 µM [activator, single point]
O=c1c(-c2ccco2)[n+]([O-])c2ccccc2n1OCc1ccccc1F		inconclusive: 2.06 µM [falling, single point]
CCn1c(C(=O)NCc2ccccc2C)cc2oc3ccccc3c21		inconclusive: 25.9 µM [activator, single point]
CCc1ccc(C(=O)CSc2nc3ccccc3c(=O)[nH]2)cc1		inconclusive: 6.51 µM [activator, single point]
Cc1ccccc1OCCSc1nc2ccc(NC(=O)c3ccccc3)cc2s1		inconclusive: 14.6 µM [falling, partial curve]
CCN(c1ccccc1)S(=O)(=O)c1cccc(C(=O)Nc2ccc(C)cn2)c1		inconclusive: 29.1 µM [falling, single point]
CC(=O)c1ccc(NC(=O)CSC(C)C)cc1		inconclusive: 10.3 µM [activator, partial curve]
COc1ccccc1OCCC(=O)OCC(=O)Nc1cc(S(=O)(=O)N(C)C)ccc1Cl		inconclusive: 9.2 µM [activator, partial curve, poor fit]
CC1(C)Nc2ccccc2C(=O)N1NS(=O)(=O)c1ccccc1	inactive: 6.03%	
CNC(=O)C1CCC(Cn2c(=O)c3sccc3n(Cc3ccc(F)cc3)c2=O)CC1 (configuration not stated)	inactive: 8.74%	
c1coc(-c2nc3ccccc3nc2-c2ccco2)c1	inactive: -30.2%	
CCOC(=O)C1CCN(S(=O)(=O)c2ccc3c(c2)CC(C)N3C(=O)C2CCC2)CC1 (configuration not stated)		inconclusive: 29.1 µM [falling, single point]
COC(=O)c1ccc2c(=O)n(CCCCCC(=O)N3CCN(c4ccccc4)CC3)c(=O)[nH]c2c1		inconclusive: 29.1 µM [falling, single point]
COc1ccc(NS(=O)(=O)c2ccc(NC(=S)NCC3CCCO3)cc2)cc1 (configuration not stated)		inconclusive: 29.1 µM [falling, single point]
CC(=O)N1C(C)(C)CC(=NOC(=O)c2ccccc2)CC1(C)C		inconclusive: 6.51 µM [falling, single point]
COCCCNC(=O)CCC(=O)N1Cc2cccc(OC)c2Oc2ncccc21		inconclusive: 7.31 µM [activator, partial curve, poor fit]
O=C(C[n+]1ccc(/C=N/O)cc1)N1CCCCC1		inconclusive: 32.6 µM [falling, partial curve, poor fit]
COc1cc(CNc2ccc(N3CCOCC3)cc2)ccc1OCC(=O)NC(C)(C)C		active: 16.4 µM

SMILES	activity change, negative = inhibition	Potency
CCCSc1nnc(CSc2nc3ccccc3s2)n1-c1ccccc1		inconclusive: 20.6 µM [falling, single point]
Cc1ccc2nc(N3CCN(Cc4nnnn4C4CCCC4)CC3)c(C#N)cc2c1		active: 23.1 µM
CC(=O)c1cccc(CN2CCC(C(=O)Nc3ccc(Oc4cccnc4)cc3)CC2)c1		inconclusive: 11.6 µM [falling, partial curve, poor fit]
COc1cc(C(F)(F)F)ccc1C(=O)NCCc1ccco1		inconclusive: 4.61 µM [activator, full curve]
O=C(CSCCc1ccccn1)Nc1cccnc1Cl	inactive: 11.5%	
CCn1nc(NS(=O)(=O)c2ccccc2[N+](=O)[O-])c2cc3cccc(C)c3nc21		inconclusive: 4.11 µM [activator, partial curve, poor fit]
O=C(C1CCCN(c2ncnc3c2nc2n3CCCCC2)C1)N1CCN(c2ccccc2F)CC1 (configuration not stated)	inactive: -28.6%	
CC1CCN(C(=O)CSc2nc3ncccc3[nH]2)CC1		inconclusive: 20.6 µM [activator, single point]
CN(c1ccc(C(=O)N2CCN(Cc3ccc4c(c3)OCO4)CC2)cc1)S(=O)(=O)c1ccccc1		active: 6.51 µM
C=CCn1c(SCC(=O)Nc2ccc(NC(=O)c3ccco3)c(OC)c2)nnc1-c1ccncc1	inactive: -20.8%	
Cc1ccccc1NC(=O)Cn1c(NCC(C)O)nc2ccccc21 (configuration not stated)		inconclusive: 6.51 µM [activator, partial curve, poor fit]
COc1ccc(CCNC(=O)c2cc(-c3cc(C)ccc3O)n[nH]2)cc1OC	inactive: -8.71%	
COc1ccc(CCNc2ncnc3nc[nH]c23)cc1		active: 14.6 µM
CCCN1C(=O)c2[nH]nc(-c3ccccc3O)c2C1c1ccc(OCc2ccccc2)c(OC)c1 (configuration not stated)		inconclusive: 18.4 µM [falling, single point]
COC(=O)CSc1nc(-c2ccc(C)cc2)c2c(c1C#N)CCCC2	inactive: -24%	
Cc1ccc2nc(-c3ccccc3)c(NC(=O)c3ccco3)n2c1		inconclusive: 20.6 µM [falling, partial curve, poor fit]
CCCC(=O)Nc1nc2ccc(OC)cc2s1		inconclusive: 2.91 µM [activator, partial curve]
CC(=O)c1ncnn1CC(=O)c1ccc(Cl)cc1Cl		inconclusive: 7.31 µM [falling, partial curve, poor fit]
Cc1ccc(S(=O)(=O)N2CCCCC2)cc1NC(=O)CNC(C)c1ccc(Cl)c(Cl)c1 (configuration not stated)		inconclusive: 29.1 µM [falling, single point]
CC(COc1ccccc1)OC(=O)Nc1ccccc1 (configuration not stated)		inconclusive: 8.2 µM [activator, partial curve]
COc1cccc2c1cc1c(=O)n(CC(=O)NC3CCCCC3)nc(C)n12		inactive
CC(C)c1nc(N2CCN(C(=O)c3ccco3)CC2)c(C#N)c2c1COC(C)(C)C2		inconclusive: 14.6 µM [falling, partial curve]
Cc1ccc(S(=O)(=O)N2[C@@H](c3ccc(C#N)cc3)C(C(=O)O)=C[C@H]2C(C)(C)C)cc1		inconclusive: 25.9 µM [falling, single point]

Arranged by molecular weight (high to low): some entries from above.
SMILES	activity change, negative = inhibition	Potency
Cc1ccc(S(=O)(=O)N2CCCCC2)cc1NC(=O)CNC(C)c1ccc(Cl)c(Cl)c1 (configuration not stated)		inconclusive: 29.1 µM [falling, single point]
CCCN1C(=O)c2[nH]nc(-c3ccccc3O)c2C1c1ccc(OCc2ccccc2)c(OC)c1 (configuration not stated)		inconclusive: 18.4 µM [falling, single point]
CC(=O)c1cccc(CN2CCC(C(=O)Nc3ccc(Oc4cccnc4)cc3)CC2)c1		inconclusive: 11.6 µM [falling, partial curve, poor fit]
CCn1nc(NS(=O)(=O)c2ccccc2[N+](=O)[O-])c2cc3cccc(C)c3nc21		inconclusive: 4.11 µM [activator, partial curve, poor fit]
CCCSc1nnc(CSc2nc3ccccc3s2)n1-c1ccccc1		inconclusive: 20.6 µM [falling, single point]
COc1cccc2c1cc1c(=O)n(CC(=O)NC3CCCCC3)nc(C)n12		inactive
COC(=O)CSc1nc(-c2ccc(C)cc2)c2c(c1C#N)CCCC2	inactive: -24%	
Cc1ccccc1NC(=O)Cn1c(NCC(C)O)nc2ccccc21 (configuration not stated)		inconclusive: 6.51 µM [activator, partial curve, poor fit]
Cc1ccc2nc(-c3ccccc3)c(NC(=O)c3ccco3)n2c1		inconclusive: 20.6 µM [falling, partial curve, poor fit]
COc1cc(C(F)(F)F)ccc1C(=O)NCCc1ccco1		inconclusive: 4.61 µM [activator, full curve]
O=C(CSCCc1ccccn1)Nc1cccnc1Cl	inactive: 11.5%	
CC1CCN(C(=O)CSc2nc3ncccc3[nH]2)CC1		inconclusive: 20.6 µM [activator, single point]
CC(COc1ccccc1)OC(=O)Nc1ccccc1 (configuration not stated)		inconclusive: 8.2 µM [activator, partial curve]

Continuation.

SMILES	activity change, negative = inhibition	Potency
CC1(C)Cc2ccccc2C(N/N=C/c2ccc(Cl)cc2)=N1		inconclusive: 2.59 µM [falling, partial curve, poor fit]
O=C(Nc1cccc(NC(=O)c2cccs2)c1)c1ccc2c(c1)OCO2		inconclusive: 32.6 µM [falling, single point]
O=C(Nc1nc2n(n1)C(c1ccc(F)cc1)C=C(c1ccccc1)N2)c1ccc(Cl)cc1 (configuration not stated)		inconclusive: 29.1 µM [activator, single point]
COc1cc2c(oc(=O)c3cc(C)cc(OC)c32)c2c(C3OC(C)C(O)C(C)(O)C3O)ccc(O)c12 (configuration not stated)		active: 1.3 µM
CC1(C)c2ccccc2-c2nc3ccccc3cc2C1N1CCOCC1 (configuration not stated)		inconclusive: 16.4 µM [falling, single point]
CCc1nnc(NC(=O)C2CCN(c3cnccn3)CC2)s1		inconclusive: 0.0046 µM [falling, full curve, poor fit]
N=C1/C(=C\c2ccc(-c3cccc(Cl)c3)o2)C(=O)N=C2SC=C(c3ccccc3)N12		inconclusive: 29.1 µM [activator, partial curve, poor fit]
CCn1ncc(NC(=S)Nc2ccc3c(c2)OCO3)c1C(N)=O		inconclusive: 29.1 µM [activator, single point]
CCc1nnc(NC(=O)Cc2ccc(Br)cc2)s1		inconclusive: 16.4 µM [falling, single point]
CC1CCC/C(=C\Nc2ccc(C(=O)O)cc2)C1=O (configuration not stated)		inconclusive: 9.2 µM [activator, partial curve]
NC(=O)CSc1oc(-c2ccco2)nc1S(=O)(=O)c1ccc(Cl)cc1		inactive
COc1ccc(S(=O)(=O)N2CCOCC2)cc1NC(=O)Cc1ccc2c(c1)OCCO2	inactive: 4.52%	
COc1ccc(NC(=O)c2ccc(Cl)nc2)cc1S(=O)(=O)N1CCCCC1		inconclusive: 29.1 µM [falling, single point]
OCCN1CCN(CC/C=C2/c3ccccc3Sc3ccc(C(F)(F)F)cc32)CC1	inactive: -2.11%	
NC(=O)c1ccccc1OCC(=O)N1CCC(Cc2ccccc2)CC1		active: 5.17 µM
COCCCNC(=S)NC(=O)c1ccc(C)cc1		inconclusive: 0.92 µM [activator, full curve, poor fit]
O=C(NC(NNc1ccc([N+](=O)[O-])cc1)(C(F)(F)F)C(F)(F)F)c1ccc(F)cc1		inconclusive: 25.9 µM [falling, single point]
CCOC(=O)c1ccc(NC(=O)Cn2c(=O)cc(C)c3c(C)nn(-c4cccc(F)c4)c32)cc1		inconclusive: 18.4 µM [activator, partial curve, poor fit]
COc1ccccc1-c1noc(CCC(=O)Nc2cc(C(F)(F)F)ccc2Cl)n1		inconclusive: 8.2 µM [falling, partial curve]
OC(COc1ccccc1)CN1CCN(C(c2ccccc2)c2ccccc2)CC1 (configuration not stated)	inactive: -2.76%	
COc1ccc(F)cc1C(=O)C1CCCN(Cc2cn(C)c3ccccc23)C1 (configuration not stated)		inconclusive: 7.31 µM [activator, partial curve]
